We go through 40 molecules from PubChem BioAssay AID2685 (National Center for Advancing Translational Sciences (NCATS), 2010).

This assay can be described thus: qHTS Assay for Lipid Storage Modulators in Drosophila S3 Cells.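 On cell number change: cells counted by Cell Tracker Red CMTPX staining in the red channel.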 The note with it: BODIPY lipid droplet fluorescence, 18-24 h; for cell number change: measured here: cell count max response, cells fed with added oleic acid. In a few lines: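 Laser-scanning cytometry quantifies lipid droplet accumulation (500–530 nm total intensity; droplet/cell object ratio) in oleic acid-fed (400 uM added) Drosophila S3 cells treated with a concentration series. 20 uM Triacsin C defined 100% inhibition.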

Setting [1] is: measured here: cell number channel AC50, cells fed with added oleic acid.
Where [2] appears, read: measured here: lipid fluorescence (Fed channel) AC50, cells fed with added oleic acid.

Where “and” joins values, the source holds several entries; their conditions need not be identical. Identical values can stand only once. The list shows a part of the results. Shown are side measurements of this screen, not its main read-out; they come without a call. Compounds called inactive in the main read-out are mostly missing here. Words in brackets tell the shape of the fitted curve; partial curves, single points and poor fits give uncertain potencies.

The AC50 is the concentration giving half of the maximal activity seen. Lower therefore signals greater potency.

`Cc1cc(C)c(NC(=O)CC(=O)c2ccccc2)c(Cl)c1`: the cell number change worked out at 47.7%. In addition, the AC50 under setting [1] was 29.1 µM [rising, single point]. Besides, the AC50 under setting [2] was 29.1 µM [falling, single point].

With `O=C(/C=C/c1cccc([N+](=O)[O-])c1)NCCSCc1ccc(Cl)cc1Cl`, the cell number change was 22%. In addition, under setting [1], the AC50 was 3.26 µM [falling, single point]. Moreover, under setting [2], the AC50 is 3.26 µM [falling, single point].

`COc1ccc(NC(=S)N(CCN2CCOCC2)Cc2cc3cc4c(cc3[nH]c2=O)OCO4)cc1`: the cell number change is 96.8%. Further, the AC50 under setting [1] is 0.13 µM [rising, full curve]. Under setting [2], the AC50 is 0.00461 µM [rising, full curve, poor fit].

`COc1cccc(-c2ccc3ncnc(NCc4cccs4)c3c2)c1`: the cell number change was -13.5% and -16.1%. Besides, under setting [1], the AC50 is 4.61 µM [falling, single point]. Besides, the AC50 under setting [2] is 5.17 µM [falling, single point] and 18.4 µM [falling, single point].

For the molecule `CCC(CC)c1nnc(NC(=O)COc2ccc3c(c2)OCO3)s1`, the cell number change came out at 17.1%. Further, under setting [2], the AC50 was 0.146 µM [rising, full curve, poor fit].

Turning to `CCC(C)OC(=O)C1C(c2ccccc2)C(C(=O)O)C1c1ccccc1` (stereo not drawn), the cell number change was -49.4%. Moreover, the AC50 under setting [1] is 5.17 µM [falling, full curve]. For the same molecule, the AC50 under setting [2] is 4.11 µM [falling, full curve].

Take `Cc1ccc(-c2nnc(CSc3nnc(COc4cccc5ccccc45)n3-c3ccccc3)o2)cc1`: under setting [2], the AC50 is 0.731 µM [rising, single point].

In the case of `Cc1ccnc2nc(C(=O)NC3=NCCS3)nn12`, the cell number change was 3.28%.

As for `COc1ccc2nc(NC(=O)C(NS(=O)(=O)c3cccc4nsnc34)C(C)C)sc2c1` (stereo not drawn), the cell number change stood at 3.88%.

In the case of `Cc1ccc2nc(N(CCN(C)C)C(=O)C3=COCCO3)sc2c1`, the cell number change was 4.91%. Under setting [1], the half-maximal activity concentration (AC50) is 0.461 µM [rising, single point]. Also, under setting [2], the AC50 is 0.0731 µM [rising, full curve, poor fit].

With `COc1ccc(C(=O)Oc2ccc(/C=N/O)cc2)cc1`, the cell number change was -7.16%. The AC50 under setting [2] was 0.291 µM [falling, full curve].

Turning to `C=CCNc1ncnc2c1ncn2C1OC(CO)C(O)C1O` (stereo not drawn), the cell number change was found to be 15.7%. Under setting [1], the AC50 was 1.46 µM [rising, partial curve, poor fit]. In addition, the AC50 under setting [2] was 6.51 µM [falling, full curve, poor fit].

For the molecule `O=C1CSC(=Nc2ccccc2)N1`, the cell number change came out at 60%. The AC50 under setting [1] was 29.1 µM [rising, single point].

With `COc1cccc(OCC(=O)O)c1`, the cell number change is -86.8%. Besides, the AC50 under setting [1] was 29.1 µM [falling, partial curve]. For the same molecule, the AC50 under setting [2] is 18.4 µM [falling, partial curve].

Take `COc1ccccc1C(=O)C1CCCN(C(=O)CCn2cnnn2)C1` (stereo not drawn): the cell number change was 2.45%. In addition, the AC50 under setting [2] was 0.00517 µM [falling, full curve, poor fit].

`O=C(NCC1CCCO1)C1CCCN1C(=O)NC1CCCCC1` (stereo not drawn): the cell number change turned out to be 0.291%. In addition, the AC50 under setting [2] was 29.1 µM [rising, single point].

Turning to `CCOc1ccccc1N(C(=O)CNS(=O)(=O)c1ccccc1)C(CC)C(=O)NCc1ccco1` (stereo not drawn), the cell number change is 3.69%.

As to `Cc1cc(Br)cc(Br)c1OCC(=O)NNC(=O)CCC(=O)NCc1ccccc1`, the cell number change was -8.22%.

Turning to `O=C(CSc1ccccc1)NCc1cccnc1`, the cell number change worked out at 13.1%. For the same molecule, the concentration at half-maximal activity (AC50) under setting [2] is 0.00461 µM [rising, full curve, poor fit].

As for `CCCCN1CC(C(=O)NC2CCCCC2)CC1=O` (stereo not drawn), the cell number change is -6.97%. Besides, under setting [2], the AC50 is 29.1 µM [rising, single point].

In the case of `Cc1cc(C)c2nc(C)cc(Nc3ccc(C(=O)N4CCOCC4)cc3)c2c1`, the cell number change is -25.1%. The AC50 under setting [1] is 0.651 µM [falling, full curve, poor fit]. For the same molecule, the AC50 under setting [2] is 3.66 µM [falling, full curve, poor fit].

`O=C(Nc1ccccn1)NC1CCCCC1`: the cell number change stood at 19.7%.

For the molecule `COC(=O)c1cc(C(=O)OCC(=O)c2ccc[nH]2)cc([N+](=O)[O-])c1`, the cell number change turned out to be 0.839%.

Turning to `CCOC(=O)CSc1nnc(NCC(=O)OC)c(=O)[nH]1`, the cell number change came to 1.78%. Further, under setting [2], the AC50 was 29.1 µM [rising, single point].

For `Cc1ccc(S(=O)(=O)N(Cc2cc3ccc(C)cc3[nH]c2=O)c2ccccc2)cc1`, the cell number change came out at 8.11%. Besides, the half-maximal activity concentration (AC50) under setting [2] was 0.13 µM [falling, full curve, poor fit].

Consider `O=C(CCSc1ccc(Cl)cc1)c1cccs1`, for which the AC50 under setting [2] is 0.731 µM [falling, full curve].

Consider `CCn1c2ccc(OC)cc2c2nc3ccccc3nc21`, for which the cell number change is -27%.

As for `CCc1c(C)c2ccc(OC(C)C(=O)NC(Cc3c[nH]c4ccc(O)cc34)C(=O)O)c(C)c2oc1=O` (stereo not drawn), the cell number change is -11.3%. Besides, the AC50 under setting [2] is 0.103 µM [falling, full curve, poor fit].

`CCCCNC(=S)Nc1cc(S(=O)(=O)N2CCCCC2)ccc1C`: the cell number change is -1.71%. Further, the AC50 under setting [2] was 0.082 µM [rising, full curve, poor fit].

In the case of `COc1ccc(C(=O)CSc2nnc(-c3ccc(C)cc3)o2)cc1`, the AC50 under setting [1] is 6.51 µM [falling, single point].

For `NNC(=O)C(Cc1ccc(O)cc1)N1Cc2ccccc2C1=O` (stereo not drawn), the cell number change was determined as 21.5%. Also, under setting [2], the AC50 is 13 µM [rising, single point].

On to `CCCCC(=O)Nc1cccn2ncnc12`, for which the cell number change is -39.8%.

Turning to `O=[N+]([O-])c1ccc(-c2cc(-c3ccc(Cl)cc3)n[nH]2)cc1`, the cell number change is -8.47%. Moreover, the AC50 under setting [2] is 0.731 µM [rising, single point].

Turning to `COc1ccccc1Nc1c([N+](=O)[O-])cc(C)cc1[N+](=O)[O-]`, the cell number change is -27.4%. Also, the AC50 under setting [2] is 8.2 µM [falling, partial curve].

For the molecule `Cc1ccc(NC(=O)CSc2nc3sc(C)cc3c(=O)n2C)cc1`, the cell number change is 14.3%. For the same molecule, the AC50 under setting [2] was 29.1 µM [rising, single point].

In the case of `O=[N+]([O-])c1ccc(NC(=S)N2CCCC2)cc1`, the cell number change was -19%.

In the case of `O=C(Nc1nccs1)c1ccc(COc2ccc(Cl)cc2)o1`, the cell number change was 3.93%. Moreover, under setting [1], the AC50 was 2.06 µM [rising, partial curve]. Besides, under setting [2], the AC50 is 2.91 µM [rising, partial curve].

With `O=C(Cn1cncn1)c1ccccc1Br`, the cell number change turned out to be 24.4%. Under setting [2], the AC50 was 9.2 µM [rising, partial curve].

Take `CCOc1ccc(NC(=O)CSc2nnc(CCNC(=O)c3ccc(OC)cc3)n2CC)cc1`: under setting [2], the AC50 was 8.2 µM [falling, partial curve].

Take `COc1ccc(C(=O)CN(C(=O)c2ccc(Cl)cc2)N2C(=O)c3ccccc3C2=O)cc1`: the cell number change is 117%. The AC50 under setting [1] is 2.31 µM [falling, partial curve]. The half-maximal activity concentration (AC50) under setting [2] is 6.51 µM [falling, single point].
